Values from PubChem BioAssay AID1259254 (NCATS, 2017).

Test: 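Finding genes that stop cells copying their DNA twice in one cycle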 (primary screen)
Cell system: human HCT116 colorectal cancer cells
Reagent: single siRNA against human genes
Duration: 3 days
Detection: 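Nuclei stained with Hoechst and imaged; cell-cycle phase assigned by DNA content; G2 share scaled per plate, non-targeting siRNA 0%, GMNN siRNA 100%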
Scale: G2 robust z-score: higher = more G2 cells, more excess DNA replication
Rule for the call: 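Active siRNAs have a G2 robust z of 5 or more median absolute deviations over the median, which in these data means about 38% or higher of GMNN control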
Shown is an unselected part of about 59,000 reagents. About 1,550 of them (2.6%) count as active. 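G2 share is only a proxy for re-replication; each gene was hit by three separate siRNAs, and active genes were retested.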 The numbers tell different reagents against one gene apart. Further read-outs or replicates are left out here. Reagent sequences are not shown. Not stated in the record: the amount of reagent.

G2 robust z-score	Outcome	target gene	reagent no.
1.78	inactive	NUTF2	1
1.93	inactive	NUTF2	2
2.64	inactive	NUTF2	3
-0.182	inactive	ELMO3	1
-0.252	inactive	ELMO3	2
-0.502	inactive	ELMO3	3
2.65	inactive	TAMALIN	1
1.62	inactive	TAMALIN	2
-0.146	inactive	TAMALIN	3
1.01	inactive	FBXL3	1
-0.32	inactive	FBXL3	2
-0.833	inactive	FBXL3	3
0.0814	inactive	FRMPD3	1
-0.541	inactive	FRMPD3	2
-0.518	inactive	FRMPD3	3
-1.2	inactive	KBTBD8	1
4.93	inactive	KBTBD8	2
-0.603	inactive	KBTBD8	3
-1.44	inactive	PPA1	1
1.47	inactive	PPA1	2
2.26	inactive	PPA1	3
-0.401	inactive	LGALS4	1
0.878	inactive	LGALS4	2
1.69	inactive	LGALS4	3
-0.792	inactive	MCRIP2	1
-1.23	inactive	MCRIP2	2
-0.16	inactive	MCRIP2	3
-0.791	inactive	OR2B6	1
-0.121	inactive	OR2B6	2
-0.17	inactive	OR2B6	3
0.00461	inactive	MICAL2	1
0.0502	inactive	MICAL2	2
1.78	inactive	MICAL2	3
-0.191	inactive	MICAL2	4
-0.982	inactive	MICAL2	5
-0.591	inactive	MICAL2	6
-0.134	inactive	BMP8B	1
-0.628	inactive	BMP8B	2
-0.545	inactive	BMP8B	3
2.47	inactive	WDR3	1
1.97	inactive	WDR3	2
0.801	inactive	WDR3	3
-1.1	inactive	YBX3	1
-0.167	inactive	YBX3	2
-0.348	inactive	YBX3	3
0.733	inactive	CCR6	1
1.97	inactive	CCR6	2
-0.441	inactive	CCR6	3
-0.615	inactive	CNBD2	1
-0.459	inactive	CNBD2	2
-0.0482	inactive	CNBD2	3
-0.921	inactive	SLC30A8	1
3.28	inactive	SLC30A8	2
-0.276	inactive	SLC30A8	3
0.199	inactive	FAHD2B	1
-0.552	inactive	FAHD2B	2
1.68	inactive	FAHD2B	3

Entries above whose gene name starts with C or c:
G2 robust z-score	Outcome	target gene	reagent no.
0.733	inactive	CCR6	1
1.97	inactive	CCR6	2
-0.441	inactive	CCR6	3
-0.615	inactive	CNBD2	1
-0.459	inactive	CNBD2	2
-0.0482	inactive	CNBD2	3

Next records:
G2 robust z-score	Outcome	target gene	reagent no.
0.479	inactive	CPNE4	1
0.159	inactive	CPNE4	2
4.06	inactive	CPNE4	3
0.563	inactive	SLC17A4	1
1.03	inactive	SLC17A4	2
-0.0316	inactive	SLC17A4	3
-0.343	inactive	ZNF160	1
0.971	inactive	ZNF160	2
-0.309	inactive	ZNF160	3
1.61	inactive	PLCH1	1
-0.357	inactive	PLCH1	2
-0.421	inactive	PLCH1	3
1.31	inactive	BLOC1S1	1
0.0102	inactive	BLOC1S1	2
2.71	inactive	BLOC1S1	3
-0.162	inactive	ADAM11	1
0.852	inactive	ADAM11	2
-1.16	inactive	ADAM11	3
-0.588	inactive	VKORC1L1	1
-0.639	inactive	VKORC1L1	2
-0.584	inactive	VKORC1L1	3
-0.112	inactive	TRIM58	1
2.62	inactive	TRIM58	2
-0.325	inactive	TRIM58	3
0.854	inactive	ARHGAP4	1
4.5	inactive	ARHGAP4	2
-0.695	inactive	ARHGAP4	3
-0.873	inactive	BSND	1
3.91	inactive	BSND	2
0.119	inactive	BSND	3
